In the DeepSol protein solubility set:

Experiment: soluble on expression in E. coli; label from the status in PepcDB or PDB records

Sequence	soluble on expression in E. coli
MLSFQYPDVYRDETAIQDYHGHKVCDPYAWLEDPDSEQTKAFVEAQNKITVPFLEQCPIRGLYKERMTELYDCPKYSCHFKKGKRYFYFYNTGLQNQRVLYVQDSLEGEARVFLDPNILSDDGTVALRGYAFSEDGEYFAYGLSASGSDWVTIKFMKVDGAKELPDVLERVKFSCMAWTHDGKGMFYNAYPQQDGKSDGTETSTNLHQKLYYHVLGTDQSEDILCAEFPDEPKWMGGAELSDDGRYVLLSIREGTDPVNRLWYCDLQQESNGITGILKWVKLIDNFEGEYDYVTNEGTVFTFKTNRHSPNYRLINIDFTDPEESKWKVLVPEHEKDVLEWVACVRSNFLVLCYLHDVKNTLQLHDLATGALLKIFPLEVGSVVGYSGQKKDTEIFYQFTSFLSPGIIYHCDLTKEELEPRVFREVTCKGIDASDYQTVQIFYPSKDGTKIPMFIVHKKGIKLDGSHPAFLYGYGGFNISITPNYSVSRLIFVRHMGGVLAVANIRGGGEYGETWHKGGILANKQNCFDDFQCAAEYLIKEGYTSPKRLTINGGSNGGLLVATCANQRPDLFGCVIAQVGVMDMLKFHKYTIGHAWTTDYGCSDSKQHFEWLIKYSPLHNVKLPEADDIQYPSMLLLTADHDDRVVPLHSLKFIATLQYIVGRSRKQNNPLLIHVDTKAGHGAGKPTAKVIEEVSDMFAFIARCLNIDWIP	soluble
MPDYKAPLRDIRFVRDELLGYEAHYQSLPGAEDATPDMVNAILEEGAKFCEQVIAPLNRVGDLEGCTWSADGVKTPTGFKEAYQQFVEGGWPSLAHDVEHGGQGLPESLGLAISEMVGQANWSWGMYPGLSHGAMNTLHAHGTAEQQATYLTKLVSGEWTGTMCLTEPHCGTDLGMLRTKAEPQADGSYKVTGTKIFISAGEHDMADNIVHIVLARLPDAPQGTKGISLFIVPKFLPNAEGNAGERNAVSCGSIEHKMGIHGNATCVMNFDAATGFLIGPPNKGLNCMFTFMNTARLGTALQGLAHAEVGFQGGIAYARERLQMRSLTGPKAPEKPADPIIVHPDVRRMLLTMKAFAEGNRAMLYFAAKQVDIVQRSQDEEQKKAADSMLAFLTPIAKAFMTEVGFESANHGVQIFGGHGFIAEHGMEQNVRDSRISMLYEGTTGVQALDLLGRKVLMTQGEALKGFTKIVHKFCQANEANEAVKEFVAPLAQLNKEWGDLTMKVGMAAMKDREEVGAASVDYLMYSGYACLAYFWADMARLAAEKLAAGTGEEAFYKAKLQTARFYFQRILPRTRAHVAAMLSGANNLMEMAEEDFALGY	soluble
MPGKNSKKMIGACVVTAALLCAPSALKAEGMLSHYTCVADAIQKDNRPEPAKRLFRSQAVENEIIRVQKLLRNSKLAWMFTNCFPNTLDTTVHFRKGKDGKPDTFVYTGDIHAMWLRDSGAQVWPYVQLANSDPELKTMLAGVINRQFKCINIDPYANAFNDGPKGGEWMSDLTDMKPELHERKWEIDSLCYPLRLAYQYWKTTGDTSIFDEEWIQAITNILRTFKEQQRKDGVGPYKFQRKTERALDTVTNDGLGNPVKPVGLIVSTFRPSDDATTLQYLVPSNFFAVSSLRKAAEILTTVNKKTALANECKALANEVETALKKYAVYNHPKYGKIYAFEVDGFGNHMLMDDANVPSLLAMPYLGDVSIDDPIYQNTRRFVWSLDNPYFFKGKAGEGIGGPHIGYDMVWPMSIMMKAFTSKDDAEIKSCIEMLMNTDAGTGFMHESFHKDNPEKFTRAWFAWQNTLFGELILKLVNEGKVDMLNSIQLEHHHHHH	soluble
MPYANQPNIEVTELTNDIIKFVLWDTDLSVANSLRRVFMAEVPTIAIDWVQIETNTSVLHDEFIAHRMGLIPFISDYHVEKMQYTRDCECAEFCDECSIPFILQMKCKDEATLAVTTEHLMPMHNLDTTVRPACGKALRERGSTRDEFHNREEILIVKLRKGQELNLKAYVKKGFGKEHAKWNPTCGVAFEYDPDNALRHTIYPNVEEWPRSDHSSLPEDSTEKEAPFEPDNKPNKFWFSIEGTGALPAQRIVTMGIGILKRKLEELNMALSNELQAHAQQHILIFHFVKKHTSYNTAFFSQNMVCGDCEKKLTKIVGVDPYRNKKVNRNADGSGPKTVTTKNRLIGVQKKATIVGAKCKLCKMLIHQPGSHYCSTCAYQKGICAMCGKKIQNTKGLRQSTT	not soluble
MSDRLGQITKGKDGKSKYSTLSLFDKYKGKSVDAIRSSVIPRHGLQSLGKVAAARRMPPPANLPSLKSENKGNDPNIVIVPKDGTGWANKQDQQDPKSSSATASQPPESLPQPGLQKSVSNLQKPTQSISQENTNSVPGGPKSWAQLNGKPVGHEGGLRGSSRLLSFSPEEFPTLKAAGGQDKAGKEKGVLDLSYGPGPSLRPQNVTSWREGGGRHIISATSLSTSPTELGSRNSSTGDGAPSSACTSDSKDPSLRPAQPVRKGASQFMGNVYHPPTYHDMLPAFMCSPKSSENQGTVERGSFPLPQLRLEPRVPFRQFQMNDQDWNYGARLVNMTFNE	soluble
MSKRRVVVTGLGMLSPVGNTVESTWKAVLAGQSGISLIDHFDTSAYATRFAGLVKDFNCEDYISRKDARKMDAFIQYGVAAGMQAMQDAGLDITEANASRIGAAIGSGIGGLGLIEENHTALVNGGPRKISPFFVPSTIVNMIAGHLTIMYGLRGPSISIATACTSGVHNIGHAARIIAYNDADVMVAGGAEKASTPLGVGGFGAARALSTRNDNPQAASRPWDKDRDGFVLGDGAGMMVLEEYEHAKKRGAKIYAEVVGFGMSSDAYHMTSPPEDGSGAALAMVNALRDAGITTSQIGYINAHGTSTPAGDKAETQAVKSVFGEDAYKVMVSSTKSMTGHLLGAAGAVESIFTVLALRDQAIPATINLDNPDEGCDLDYVPHDARQVKDMEYTLCNSFGFGGTNGSLVFRKV	not soluble
MSLGDAIKAFIQNRNSRETNPSPSNQAKEANRSVASSKKQALRTSVLIDAPLLSQLPELPRGCEVTSLAMLLNHAGIRVDKMTLAKQIKKNPTPYQVRNGQVFYGHPNEGFVGDMYTLSKPGYGVYHKPIKQLAERYLPNQIIDLTGQSFENIYTYLAKGTPVWVITNTTFRPLPPSAFREWQTPQGPIKITYREHAVLITGYDEQYIYFNDPLTAVKNQKAPKQDFIDAWVQMGRQAITYHREGHHHHHH	soluble
MSLSDINRVYLVTGAASGIGRATARLLAAPGTALMLHTRSNAAGLDAAAAEAEAQGAVVAKCLGDLAGEAAATDAVAAAQTAFGRLDGLILVGGHARRGSAIGTPADEFRQAMDESALAFTRLVDAALPLLRAGRDARIVAVSSFVAHAIRPEFAPFAATAASRSALEALVRLAAVELAKDGITVNAVSPGLIVKDKPSESRLSPEQIAATEALIPMRRRGRPEEVAEIIAFLASPKASYVTGQVWHVNGGLTEGHHHHHH	soluble
MSNRLPVTVLSGFLGAGKSTLLNHVLRNRDNLRVAVIVNDMSEINIDASEVQRNVSLNRAEEKLVEMSNGCICCTLREDLLEEVARLAEEGRFDYLLIESTGISEPLPVAETFTFRDEQGRSLSDMARLDTMVTVVDGLNFLRDYQAADSLASRGETLGEEDERSISDLLIEQVEFADVLLLSKIDLISQHEREELIAILRSLNARAQIVPMVMGQVPLARILNTRLFDFDQAAQAPGWLQELRGEHVPETEEYGIAAMTWQARRPLHPQRFYDFIHKDWENGRLLRSKGFFWLASKYQEAGSWSQAGGMMRHGLAGRWWRFVPREQWPQDVDNTNAILKHWTADTGDCRQELVFIGQNIDVEKLSTALDACLLTDQEMGLGHMGWLRLPDPFGPWHEEAAA	not soluble
MSSPRRTRIMFDTSSDDSQSDEKIDDFICRSSPQRQSKESDDQEDSVVDESMKSVNSPIVNTPSSTASHCTNSFATSTPKSKSNASTRLGSSYGSSRSSSQNHESHDRSRSFVQYDENKPLTPISKKLAESTDLRSKAQLRERLLRKSLKQNAEDSSPTRAASGGGWGSSADVKKSPEVSTGLFETALSPIAKSDRRSSEYNSSTFLNVQKVATSTAINDIGGREEIVDESFPAPRTTAKQDDSDIIEVTPEKVVSNEKRKSGIAINLDDSDIIDVTPVKTTSSRPPEPQRPRLPTSPINSEYAKLSYKELLAKKNKVMGLISLSLDLPDGGRRVIKQFQELDDEVERRKEMGLAEEIVDDDEDDEIFVIEDDEPSHRQVAPKFPSGSVMTQNGLLPKRHIVDPLKAPQPDFNAMLEKDNKKMMSGKMTDEKYKRIQLVSDRVVRQLAEATHTIPDETELTDTPKGFKLELMPHQKAGLTWMRWRETQPQPGGILADDMGLGKTLSMISLIAHQKAARRARREDGNDDKDKEKRKVVKEQGLIPSNGTLIVAPASLIHQWDAEIDRRLDDSVLSTYMFHGTKKQRDIDARRLARYDVVITTFNLIANELIEKIRTKSKADDSSDGESDSNHTGIRRAVGKDDSVLAQICWSRVILDEAHTIKNRQSLASKAVCRLSAFSRWCLSGTPIHNNLWDLYSLVRFLRIRPFSDDKYWKESIMPMKPIMADRVNLLTKNLLLRRTKDQTCAVTNQKLVQLPPKNVEVHELELDGDEAQAYEIMMEAAKKFVKKLLQDSNDMKNHGFIPRRNRRAGKEGEVQNPFNFGPRDLAAGSNFEKMSCVLMLLLRLRQACVHFNITKTGVDMDAFSLIGGDNAEEANVDDLNELLEKTMNMTLGNGDNEERDKPRATTRIFDPDYLSCKIKNTLEIVENIMEKKEKVVIVSQWTSVLNLIEIHIKSSGFKYTSITGQVLVKDRQERVDSFNREKGGARVMLLSLAAGGVGLNLTGGNHLVMVDLHWNPALEQQAFDRIYRMGQKKDVFIHRLVTKGTIEQRVVMLQKDKVALASSVLDGNATRKMNKLTTADIKMLFGLNEK	soluble
MTKKRHLFTSESVTEGHPDKICDQISDSILDAILSKDANARVACETTVTTGLVLVAGEITTSTYVDIPKIVRETIQGIGYTRAKYGFDAETCAVLTSIDEQSADIAMGVDQALEAREGQMTDAEIEAIGAGDQGLMFGFACNETQELMPLPISLAHKLARRLTEVRKNDTLSYLRPDGKTQVTVEYDENGKPVRVDTIVISTQHHPDVTWEEIDRDLKEHVIKAVVPAELIDGETKFFINPTGRFVIGGPQGDAGLTGRKIIVDTYGGYARHGGGAFSGKDATKVDRSAAYAARYVAKNIVAAGLAEKAEVQLAYAIGVAQPVSISVDTFGTGKVSEDVLVELVRNNFDLRPAGIIKMLDLRRPIYKQTAAYGHFGRTDVDLSWERTDKAAALKEQAGL	not soluble
MTSPNIFQDWADVYEFIERDSSRKNVPAIEAIERRLAFSPLITPNPGAKQFAPIHVPGREPPRMLLPPTPHFQAPFSPHPPPVQQVPSYSPPHAPPSYETYPEVYYPPHIICNPYDVPTTSDRNPPYYTEVTTVSAVTLHSMTPPTHKIETPPSSPENSFGPLASQLPAIKMEIPMHPLPHNGELDSTRSSPSSTTSSERSPLQRKSRIESNKRNPTDKKFVVHACTYPGCFKKYSKSSHLKAHERTHSGEKPFVCKWQNCSWKFARSDELTRHMRKHTGDKPFRCSLCDRNFARSDHLSLHMKRHSTI	not soluble
SANAILLVSEDQRSVQRAEEPHDLPDNPERFEWRYCVLGCESFMSERHYWEVEVGDRKEWHIGVCSKNVERKKVWVKMTPENGYWTMGLTDGNKYRALTEPRTNLKLPEPPRKVGVILDYETGHISFYNATDGSHIYTFLHASSSEPLYPVFRILTLEPTALTVCPIPKVESSPDPDLVPDHSLEIPLTPGLANESGEPQAEVTSLLLPAQPGAKGLTLHNSQSEP	soluble
SWKASAGHAVSITQDDGGADDWETDPDFVNDVSEKEQRWGAKTVQGSGHQEHINIHKLRENVFQEHQTLKEKELETGPKASHGYGGKFGVEQDRMDRSAVGHEYQSKLSKHCSQVDSVRGFGGKFGVQMDRVDQSAVGFEYQGKTEKHASQKDYSSGFGGKYGVQADRVDKSAVGFDYQGKTEKHESQKDYSKGFGGKYGIDKDKVDKSAVGFEYQGKTEKHESQKDYVKGFGGKFGVQTDRQDKCALGWDHQEKLQLHESQKDYAKGFGGKYGVQKDRMDKNASTFEEVVQVPSAYQKTVPIEAVTSKTSNIRANFENLAKEREQEDRRKAEAERAQRMAKERQEQEEARRKLEEQARAKKQTPPASPSPQPIEDRPPSSPIYEDAAPFKAEPSYRGSEPEPEYSIEAAGIPEAGSQQGLTYTSEPVYETTEAPGHYQAEDDTYDGYESDLGITAIALYDYQAAGDDEISFDPDDIITNIEMIDDGWWRGVCKGRYGLFPANYVELRQ	soluble
